Experimental data published in publication doi:10.1101/262477 (bioRxiv, 2018).
Results are given in words; binding and its absence hold for the method and conditions named. Some entries that bind do so weakly or less than the wild type.

Protein sequences, listed by entry. Tags and fused reporters are not part of them. Lines headed by an entry give the natural chain unless they say otherwise; changes in a name come on top. Residues count along the entry.
UniProt Q9Y697, 56-457, stated change not applied: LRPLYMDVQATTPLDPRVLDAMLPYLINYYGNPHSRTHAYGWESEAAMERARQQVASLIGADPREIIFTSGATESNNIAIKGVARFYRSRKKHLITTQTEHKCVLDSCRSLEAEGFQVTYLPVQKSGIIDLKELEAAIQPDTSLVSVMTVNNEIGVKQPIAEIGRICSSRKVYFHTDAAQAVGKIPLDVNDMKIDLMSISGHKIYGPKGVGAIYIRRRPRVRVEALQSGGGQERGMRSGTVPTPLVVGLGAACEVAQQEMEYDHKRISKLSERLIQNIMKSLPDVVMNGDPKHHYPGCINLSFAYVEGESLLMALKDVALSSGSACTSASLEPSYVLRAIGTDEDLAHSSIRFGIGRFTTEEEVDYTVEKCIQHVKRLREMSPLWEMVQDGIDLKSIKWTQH
UniProt Q9HD34, whole entry: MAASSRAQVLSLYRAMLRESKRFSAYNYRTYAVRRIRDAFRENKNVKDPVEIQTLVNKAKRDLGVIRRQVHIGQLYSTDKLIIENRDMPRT

How the values were obtained:
[1] = target: NFS1-ISD11 complex (SD) with His-tagged ISD11, as co-expressed and captured on Ni resin (human) (UniProt Q9Y697); assay: co-purification
[2] = target: human His-tagged ISD11 (human) (UniProt Q9HD34); assay: co-purification

Row | binding [2] | Substance | binding [1]
1 | – | bacterial acyl-carrier protein (ACP) from the host expression organism E. coli (from UniProt P0A6A8 1-78) | binds
2 | binds | human NFS1 (Δ1-55), non-tagged (from UniProt Q9Y697 56-457) (enzyme) | –
